Literature values as cited in US8247551B2, “Lead sensor and methods of use” (priority 2007, dated 2012).
For at least one compound, name, drawing or mass did not settle the structure.

Details: fluorescein in 0.1 M NaOH; cited from earlier work

O=C1OC2(c3ccc(O)cc3Oc3cc(O)ccc32)c2ccccc21 [fluorescein]
quantum yield of reference: 0.95
